These results are taken from publication PMC7677368.

Protein sequences, listed by entry. Tags and fused reporters are not part of them. Lines headed by an entry give the natural chain unless they say otherwise; changes in a name come on top.
UniProt Q03919: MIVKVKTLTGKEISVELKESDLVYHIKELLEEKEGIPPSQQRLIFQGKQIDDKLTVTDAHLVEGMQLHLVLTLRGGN
UniProt Q7KQL3: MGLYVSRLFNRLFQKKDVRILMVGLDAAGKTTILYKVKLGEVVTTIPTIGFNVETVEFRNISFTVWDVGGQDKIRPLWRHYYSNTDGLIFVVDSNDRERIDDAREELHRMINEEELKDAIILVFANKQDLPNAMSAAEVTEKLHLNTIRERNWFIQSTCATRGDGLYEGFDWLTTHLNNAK
UniProt Q8I3V5: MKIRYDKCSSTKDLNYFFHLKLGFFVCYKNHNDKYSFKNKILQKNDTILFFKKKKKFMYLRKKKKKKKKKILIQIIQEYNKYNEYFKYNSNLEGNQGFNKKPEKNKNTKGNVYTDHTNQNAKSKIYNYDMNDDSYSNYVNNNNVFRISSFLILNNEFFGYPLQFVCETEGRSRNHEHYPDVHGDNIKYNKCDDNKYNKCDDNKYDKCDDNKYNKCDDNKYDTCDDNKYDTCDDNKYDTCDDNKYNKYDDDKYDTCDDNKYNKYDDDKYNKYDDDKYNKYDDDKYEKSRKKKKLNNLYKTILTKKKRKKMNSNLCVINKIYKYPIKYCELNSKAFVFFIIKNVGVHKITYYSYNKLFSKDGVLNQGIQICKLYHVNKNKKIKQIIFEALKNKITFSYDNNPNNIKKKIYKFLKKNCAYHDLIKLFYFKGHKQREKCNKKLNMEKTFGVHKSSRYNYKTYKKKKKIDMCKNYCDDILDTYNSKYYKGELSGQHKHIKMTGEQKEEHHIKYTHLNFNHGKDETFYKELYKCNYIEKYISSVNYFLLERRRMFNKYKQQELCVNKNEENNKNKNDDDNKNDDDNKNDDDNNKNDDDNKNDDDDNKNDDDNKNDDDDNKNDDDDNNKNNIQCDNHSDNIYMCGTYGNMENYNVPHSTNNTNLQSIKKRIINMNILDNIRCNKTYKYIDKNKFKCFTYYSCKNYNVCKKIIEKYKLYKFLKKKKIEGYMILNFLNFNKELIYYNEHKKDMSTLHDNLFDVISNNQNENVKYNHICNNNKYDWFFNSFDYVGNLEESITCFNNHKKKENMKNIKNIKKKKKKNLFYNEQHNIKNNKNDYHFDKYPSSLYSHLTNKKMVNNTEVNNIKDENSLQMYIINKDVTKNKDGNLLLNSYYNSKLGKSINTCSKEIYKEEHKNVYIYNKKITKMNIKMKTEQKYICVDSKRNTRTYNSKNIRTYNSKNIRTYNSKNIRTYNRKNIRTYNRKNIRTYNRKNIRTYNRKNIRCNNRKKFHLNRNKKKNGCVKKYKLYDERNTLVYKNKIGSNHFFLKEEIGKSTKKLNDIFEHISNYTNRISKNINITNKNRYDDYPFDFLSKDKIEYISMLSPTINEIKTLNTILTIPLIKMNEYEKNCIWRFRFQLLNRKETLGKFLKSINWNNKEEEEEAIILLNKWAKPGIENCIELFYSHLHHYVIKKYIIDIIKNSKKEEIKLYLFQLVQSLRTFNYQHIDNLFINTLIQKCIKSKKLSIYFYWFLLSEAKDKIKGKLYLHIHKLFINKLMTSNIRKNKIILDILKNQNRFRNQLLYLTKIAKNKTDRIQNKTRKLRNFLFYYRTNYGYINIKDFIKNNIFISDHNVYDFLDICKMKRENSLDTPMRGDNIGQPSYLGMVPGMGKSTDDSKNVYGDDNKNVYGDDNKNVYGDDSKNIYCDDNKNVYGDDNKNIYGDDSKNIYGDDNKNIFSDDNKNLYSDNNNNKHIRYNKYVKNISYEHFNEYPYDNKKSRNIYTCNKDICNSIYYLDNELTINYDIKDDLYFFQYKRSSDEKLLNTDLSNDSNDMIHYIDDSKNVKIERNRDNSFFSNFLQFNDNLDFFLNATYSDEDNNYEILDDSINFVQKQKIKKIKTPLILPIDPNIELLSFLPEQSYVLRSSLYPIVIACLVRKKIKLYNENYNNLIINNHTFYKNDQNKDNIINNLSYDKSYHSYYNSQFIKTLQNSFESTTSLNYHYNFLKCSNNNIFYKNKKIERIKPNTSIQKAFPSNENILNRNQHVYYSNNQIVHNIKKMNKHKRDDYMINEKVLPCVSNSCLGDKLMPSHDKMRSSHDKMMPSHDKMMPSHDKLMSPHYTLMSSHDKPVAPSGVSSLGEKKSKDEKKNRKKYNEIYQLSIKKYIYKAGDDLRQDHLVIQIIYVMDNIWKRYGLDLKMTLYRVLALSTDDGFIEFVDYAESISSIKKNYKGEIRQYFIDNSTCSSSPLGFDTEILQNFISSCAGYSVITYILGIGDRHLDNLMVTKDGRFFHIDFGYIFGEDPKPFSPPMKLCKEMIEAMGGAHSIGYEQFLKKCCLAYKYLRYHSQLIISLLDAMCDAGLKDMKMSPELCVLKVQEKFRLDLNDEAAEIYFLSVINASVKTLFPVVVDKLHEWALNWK

No constants are given. Whether binding was seen depends on the method and setting. Binding seen in cells or lysates may run through a third protein. A yes stands for co-enrichment or nearness to the bait. Other partners may have been found. For some assays here: A no says only that the protein was not detected with the bait. For some assays here: Sequences can lack the tags named with a protein.

Assay [1] concerns the target T1, HA-tagged PfNEDD8 expressed episomally in P. falciparum (P. falciparum) (UniProt Q8IEI4).
T1 sequence: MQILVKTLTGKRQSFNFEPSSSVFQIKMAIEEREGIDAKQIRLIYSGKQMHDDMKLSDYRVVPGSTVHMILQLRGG
Description: affinity purification with mass spectrometry; lysates of HN8-expressing P. falciparum parasites (0.5% Triton X-100, 150 mM NaCl, pH 7.5) immunoprecipitated with rabbit anti-HA antibodies and protein A/G magnetic beads at 4 °C; wild type parasites as control; eluate by LC-MS/MS.

In assay [2] the target is T2, recombinant SUMO-PfNEDD8 (PfNEDD8 as a C-terminal fusion of His-tagged SUMO) (P. falciparum) (UniProt Q8IEI4).
T2 sequence: T1 sequence
As to the kind of experiment: affinity purification with mass spectrometry; in vitro neddylation reaction (100 μg soluble P. falciparum extract, 1 μg SN8, 5 mM ATP, 50 mM Tris-Cl, 0.5 mM DTT, MgCl2, pH 7.5, 37 °C, 1 h), then SN8 and what is with it isolated on Ni-NTA resin (washes with 150 mM NaCl, 10-50 mM imidazole), eluate by LC-MS/MS; only the target purified.

Assay [3] addresses T2, recombinant SUMO-PfNEDD8 (PfNEDD8 as a C-terminal fusion of His-tagged SUMO) (P. falciparum). Description: affinity purification with mass spectrometry; control of the in vitro neddylation reaction without ATP (parasite extract and SN8, 37 °C, 1 h), then Ni-NTA isolation and LC-MS/MS; only the target purified.
Assay [4] addresses N-terminal 2xHA-tagged S. cerevisiae Rub1 expressed in S. cerevisiae rub1Δ (S. cerevisiae) (UniProt Q03919). Description: affinity purification with mass spectrometry; lysates of rub1Δ[HA-PfN8] and rub1Δ[HA-rub1] S. cerevisiae (0.5% NP-40, 150 mM NaCl, pH 7.5) immunoprecipitated with mouse anti-HA antibody on protein A/G magnetic beads, overnight at 4 °C; wild type strain as control; eluate by LC-MS/MS.

For assay [5], the target named is T3, N-terminal 2xHA-tagged PfNEDD8 expressed in S. cerevisiae rub1Δ (P. falciparum) (UniProt Q8IEI4).
T3 sequence: T1 sequence
Described as above.

Regarding “P. falciparum ADP-ribosylation factor 1 (from UniProt Q7KQL3 1-181)”, in assay [1], the binding entry is recorded as “binds”.

For “P. falciparum phosphatidylinositol 3-kinase (from UniProt Q8I3V5 1-2133)”, the binding entry is listed as “binds” in assay [2] and “no binding (only without ATP)” in assay [3].

With “P. falciparum ER lumen protein retaining receptor 1”, the binding entry in assay [2] is “binds”; in assay [3] it was “no binding (only without ATP)”.

B1: P. falciparum cullin-1 (protein, UniProt Q8IAU5 1-829)
chain: MDIVNINFESGWKIIREEAIEKIEKYLENEHIEKNKNLFSATEYTRLYTVVYNMCAKKNPFCYSKEVYRKYGESLSMYTIDKIKPLLKNSDELNKTKILIDAWFKYSFYTKWMNKFLRYLDRYYVEYNSSLCLSAYTKNIFKITLFNELREDIKNIIYEIYNNLRLQEEIDQKELFCNIVELYKELDNESNEKMYEHDIEKKIVENVNNFYKKKAEEWINDYPFDDYIISIENAIEKEYEKNKSLNLNDDTCEKVTNIIVKILIYEKLNTLIDNKNNIFHLLKNNNLSSLRRTYILFSYFPEALTGLKKIIGEYIKMEGNELKDKYVQLSRKMHMSKNVNNMQNVDDNTMEDNDNYIDISNDDNNNNDNSNNNNIMNTEQNDDIILCDYIEQLIKLHNHYDNIFKLSFFNISNKNIDPNFNECLKDYFESFVEHEDEYFSTVKLLVIYTDNILKRDLNNENSVDEKQKIHMNKEEKNDEQTKFLMKKMSEIVEIFNYTSNKETFFEYYRVYLANRLINNIYISLHIEKKFIEQLYYLCGSQYTSKLGGMIQDLINNTNMNNKFYDHMKNVFNNNEIVNNNNNNSIYNDHFSNYHNVKDFFSVKILNKGYWPTLEKIHIQLNEPFNKYIQVFEEYYKSENKNRKLEWIYELSEVILHYEFNNILYNLYCNVVNAQILLLFNKYKYINYDIVKNELQIDLKSFTDHMYTSFYHFKLITSNDQIPDWTNSNFYINNNFSYPNKNVYIKKTTALLSKEHEKTKEDRTMAIEAAIVRVMKMHKKLFYDQIFDYVKKSLSSFSPTNQVIEKKIDLLVEREYIQKEENSQIYVYIP
Consider B1, for which the binding entry in assay [1] is reported as “binds”; in assay [2] it was “binds”; in assay [3], “no binding (only without ATP)”.

B2: P. falciparum suppressor of kinetochore protein 1 (protein, UniProt Q8ID38 1-162)
chain: MKNDKIKLVSFEGDEFIVDKNTASMSTVIMNILEVMTAEEDTIPLPNIKTPILKKIIEYMEYHINNPADEIPKPLITSNLQDVVSSWDFDFVNTDKETLYELIEASNYLDIKPLLDLTCGKIASMMKDKTTEEIRAEFDIVNDFTREEEKQIREENRWCGDI
With B2, the binding result in assay [2] is on record as “binds”; in assay [3] it was “no binding (only without ATP)”.

B3: P. falciparum coatomer subunit delta (protein, UniProt Q8II16 1-487)
chain: MTVLSAVISTKSKILVSRQFRNISKCDLDSLTIPFHNLIERERSDHTYIETDKVRYVYQPLDNIYIFLITNINSNIIEDLEIIKVLSQIIQDICQGNINESTILKKCFTIIFYIDELIKNGVREIVNSNQIKTYIEMESHEEKLQTIIRENKEKEEKERRKFIASKLEKNRQKQSKVSSNSFLSNDLINNLEYTNNIDMYKTEEQDIIDESFNTYKGMQLTSNKKENIRILNVVEHKVDTKPHINVNSIFDKPINIIITENIICTLSSEGTLCDLDIQGTFNLQINNHNYSKVIVELDNEYSEKAKIHPILDKNKYNSNILELKDKSKNFRINTIYPLLKWKINHINDSYIPLNISCWPCEDNESTLLSLEIENKRNNNDELIYDLNVNLMCPSAHKPQIISNDKGIIEHDGVLLAWKVDELKNNQSCQIEMSIQANPESVFPFSVEAKSNMLAHKLNVLKVYDEDTKKDIEYEIKKNITYLFTINK
B3: the figures for the binding entry in assay [2] and in assay [3] were “binds” and “no binding (only without ATP)”, respectively.

B4: P. falciparum cullin-like protein (renamed cullin-2) (protein, UniProt C6KTD3 1-1129)
chain: MDPTAVNNYPVFYVKNKDFLNVDNEHIRCSLKRFEEYIHECFSILPYNKIKIQNEEKISVQHFCDVLVFNQCEQIICAIIEKECNEKTKQFFEEVEIRIKNEEFKNGEEEFLKLFVSIWNNFSLVLIHISDILQSFIAYTKNMCCNFFDPTQIFNYLWKKYINQYVIIKNMFISSICNYLTYDKIYCETYFYEYVCVNICNKYATKRYNLKKNQINYIERLQNIQKNYQVNNEATNKQTNKINKKDCINKKEIPTENITYKTKEEEHIQRGDHNNNNNYNNSYDNNNYSDDIYNSNPYLDDTNHEYKNTQKKKKINDKVLSLSIKISDILNLYDDFERIYKNETYTFYKEKIEKYKKDMETLGYEECNFDFPIIVENYLCHEQIRSRKFLKEHTEITILNMLKDLLLVKNRDVLFKDSYIKYCIIKEKYDPLRSVYLYSLNLDDLENFSNIFFNVVDNIGTELVNDVINKRNNSSLLNNAIIKLINFKLNVDRIIIMSFRYSSYFMKKWREVFEHFINKGIQAETYMPIILSMYLNNLLTMYNACLRKLKKYYILNKKIKNNRSLFNNLLFEVDWNNYCTQPISETIDFYDISTDSDNMLGIKKYLRKKRKNTKKDLINFEHEEEYVKRKHMDNNIHNNDHNDNIYFNNNLYFNNDYHNNLYYDSLNINKRSDEKIFFHLLKIDKLFKKYHIIGKYIMNMITVILSLFRYVSDKEKFEKYYRTYMCKRLINDSSFNIILDVKVFKTLKKECGAQFTKKIEIILKDMKFTSKTLMKFYKELPNNVNHFLKRKKYAVNIIFNESWEYVNTENNVIYPPMIKMCNEAFFLFYQKYNKSKNIKFLPLLGLCTLRVHFKNFKEEGSFDLGKRDDNNDEKRDDNNDEKRDHNNIEKRDDNNIEKRDDNNIEKRDDNNIEKRDDNNDEKRDENNDKKRDENNNYSDDNDDDLNNEDSSSTYNKKGKKKIYITVTILQALVLLLFNKKNEYHINEIKELTGISTENIIRYLKTIYTIGETHILIYDKANEILKLNFSFRSKKKFLIVNYNDVLYKDDMGPTTSLLNEDNEIEDKTLHIDAAIVKFLKTNGKSSERKICSFIKDKMDISSNEQIKNRISSLLSREFIFFKNNNYHYEL
With B4, the binding result in assay [1] is “binds”; in assay [2], “binds”; in assay [3], “no binding (only without ATP)”.

B5: S. cerevisiae SCF-associated factor 1 (protein, UniProt P38352 1-637)
chain: MSEVESREKEPDAGLSPDIVQATLPFLSSDDIKNLSQTNKYYNTLLDFDHSKILWHELFHKAFGTLKTNDEPFQGRNSAEFKTCTETILREAFPTLSWQEVYQLRAYDAKFYSWGYLKHGRLGYTASSNNELVATSLNGPSPRFKYGVNTPTEVPWFNSRTTSRTSNFTPSEDPLSAIKKDGDEIIAQVSSGGFSFQILTESGNLYSSGSTFSGGLKGPGPSGSQHDYNPFREMIHNMERSYPRITSRSNGSTVNTTGTFSGRRMSGSHPSTAYEPGNATTAQHITIDSGGAPAASPGGSHSGVPRTTMPSMGPHENIYSQIEMLERSANKAVPGNNHIRRMFARNSFPLYSGRDENLGSFNDIQFVAVSSGRSHFLAMDTDNNIYSWDSTESDQGVKIEFANLPSRATNPILKIASGWNFNCCYIYKVGLVAWKERDAIQKGESFAFAKYEIVPNTNDVNGDSRIVDFACLQDNCVFFINNNGDKLWKYHNGLNQIVDLNIVGKLCKINACFASLVLFTDTHCYTLKVTNGDVDKDSLTELDINENVISVASGDYHTVALTERGHLYSWGIESQDCGCLGLGPSEKIVNELHIGNWEGQRNIRVVKPTKIELPEDYICVSVTAGGWQTGALIIKKH
With B5, the binding result in assay [4] and in assay [5] was “binds” in each case.
